Earlier results as cited in patent US20190209539A1, “THIOHYDANTOIN ANDROGEN RECEPTOR ANTAGONISTS FOR THE TREATMENT OF CANCER” (Janssen Pharmaceutica NV, priority 2016, published 2019).
At least one compound was matched to its structure with a doubt left.

System: prostate cancer cells overexpressing AR
Conditions: AR overexpression; cited from earlier work

In the case of `CC(O)(CS(=O)(=O)c1ccc(F)cc1)C(=O)Nc1ccc(C#N)c(C(F)(F)F)c1` (stereo not shown) [bicalutamide], the antagonist/agonist profile is listed as “mixed antagonist/agonist profile”.
